# Paper doi:10.1101/2024.07.10.601956
# Results are given in words; binding and its absence hold for the method and conditions named. Binding seen in cells or lysates may run through a third protein. Some entries that bind do so weakly or less than the wild type. Sequences can lack the tags named with a protein.
# T1: N-terminal V5 epitope-tagged human Mtln (nV5-Mtln) (human) (UniProt Q8NCU8)
# T1 sequence: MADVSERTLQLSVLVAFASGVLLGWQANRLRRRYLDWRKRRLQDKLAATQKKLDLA
# Molecular target: T1, N-terminal V5 epitope-tagged human Mtln (nV5-Mtln) (human)
# Test: co-IP
row,binding,Binder
1,binds,"Mitoregulin (Mtln), endogenous, human A549 cells (protein, UniProt Q8NCU8 1-56) MADVSERTLQLSVLVAFASGVLLGWQANRLRRRYLDWRKRRLQDKLAATQKKLDLA"
2,binds,"Native (untagged) wildtype human Mtln expressed from a plasmid (protein, UniProt Q8NCU8 1-56) MADVSERTLQLSVLVAFASGVLLGWQANRLRRRYLDWRKRRLQDKLAATQKKLDLA"
